Source: paper PMC9601806 (Foods, 2022)

Assay: peptide made by a vendor
Settings: whole synthesis, HPLC

**Q.** For DEDEQIPSLPPR, which “purity (crude or final not stated)” value is on record?
**A.** 98%

Plain letter strings leave the end groups untold.
